In article PMC5718073:
These are yes or no findings as the source states them, for the method shown. In cells and extracts the contact can be indirect. Some entries that bind do so weakly or less than the wild type. For some assays here: Tags and fused reporters may be left off the sequences shown.

Sequences of proteins named here, by UniProt entry; tags and fusion partners are left off.
UniProt Q9V460: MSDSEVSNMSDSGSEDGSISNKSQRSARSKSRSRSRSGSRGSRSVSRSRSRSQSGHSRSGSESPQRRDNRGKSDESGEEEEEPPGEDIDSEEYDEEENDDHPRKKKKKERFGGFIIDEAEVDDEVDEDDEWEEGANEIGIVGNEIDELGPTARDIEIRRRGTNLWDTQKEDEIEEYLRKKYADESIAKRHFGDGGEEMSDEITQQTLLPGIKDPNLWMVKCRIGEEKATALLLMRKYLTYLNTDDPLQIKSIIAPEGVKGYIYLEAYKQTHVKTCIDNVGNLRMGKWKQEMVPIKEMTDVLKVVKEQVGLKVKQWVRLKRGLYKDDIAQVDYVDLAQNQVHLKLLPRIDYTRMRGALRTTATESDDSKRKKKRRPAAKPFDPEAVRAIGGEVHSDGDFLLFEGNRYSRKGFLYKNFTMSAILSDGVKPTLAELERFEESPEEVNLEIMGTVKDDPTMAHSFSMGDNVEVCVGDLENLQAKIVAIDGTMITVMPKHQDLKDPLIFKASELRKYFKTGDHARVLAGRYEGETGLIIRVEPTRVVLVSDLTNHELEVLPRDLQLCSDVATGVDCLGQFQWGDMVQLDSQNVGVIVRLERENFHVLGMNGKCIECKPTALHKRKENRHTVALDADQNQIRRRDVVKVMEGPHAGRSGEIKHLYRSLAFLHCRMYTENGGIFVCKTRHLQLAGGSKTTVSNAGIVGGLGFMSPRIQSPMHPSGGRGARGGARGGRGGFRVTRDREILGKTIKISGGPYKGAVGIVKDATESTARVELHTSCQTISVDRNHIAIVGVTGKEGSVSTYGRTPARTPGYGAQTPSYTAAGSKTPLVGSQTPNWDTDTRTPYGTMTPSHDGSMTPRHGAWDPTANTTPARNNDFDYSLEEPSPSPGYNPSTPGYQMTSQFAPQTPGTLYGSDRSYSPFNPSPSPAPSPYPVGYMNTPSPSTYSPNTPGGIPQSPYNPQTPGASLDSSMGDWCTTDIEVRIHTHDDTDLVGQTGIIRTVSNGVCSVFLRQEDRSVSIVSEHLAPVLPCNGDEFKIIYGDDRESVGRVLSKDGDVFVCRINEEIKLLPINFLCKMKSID

What was measured:
[1] = molecular target: FLAG-tagged Spt5 (Drosophila) (UniProt Q9V460); assay: co-IP; as the co-IP from transfected S2 DRSC cells (control or heat shocked), but the lysate was treated with DNase I or RNase A for 10 min at room temperature (0.4 mM MgCl2, stopped with 5 mM EDTA) before the anti-FLAG IP
[2] = molecular target: FLAG-tagged Spt5 (Drosophila) (UniProt Q9V460); assay: co-IP; S2 DRSC cells transiently co-transfected with a FLAG-tagged and an HA-tagged construct; lysis in 50 mM Tris pH 7.5, 150 mM NaCl, 1% NP40, 1 mM EGTA, 20 mM NaF; anti-FLAG IP on Protein G Dynabeads at 4 °C, anti-HA Western blot; cells at 25 °C, heat shocked (37 °C, 15 min) and recovering, or treated with radicicol, flavopiridol + heat shock, sodium salicylate, HSF or LacZ RNAi
[3] = molecular target: FLAG-tagged Pho (Drosophila) (UniProt Q8ST83); assay: as above

Molecule: HA-tagged PhoV164D (from UniProt Q8ST83 1-520)
- binding [1]: binds
- binding [2]: binds weakly

Molecule: HA-tagged Pleiohomeotic (Pho) (from UniProt Q8ST83 1-520)
- binding [1]: binds
- binding [2]: binds

Molecule: HA-tagged Spt5 (from UniProt Q9V460 1-1078)
- binding [3]: binds

B1: HA-tagged N-Pho (a.a 1-351) (domain or fragment, UniProt Q8ST83 1-351)
chain: MAYERFGIILQSEQYDEDIGNTKVNQKMNEGNHYDLHRKNAFDRIIHSESKKGDNVINYNIHENDKIKAADNIFSSKLKMNPNMSYEMNINCFKNIGYGENQETSKVLTNSLSNNDINTEESGVVDKNSPFLTLGTTILNSNGKSRRWEQKLVHIKTMEGEFSVTMWASGISDDEYSGSDQIVGASDLLKGKEEFGIDGFTSQQNKEYQKMESKFTNAQTLEMPHPISSVQIMDHLIKERGNLSQENNISERILSKTTLSFEEPILLPDSSSIELVNETAAMTINNHRTLSNHTGNTGDLHALPSSVPFRIGLHEGQVNDCLSTISQSTHQDNTDSTGCGEMNLSEVTVSY
- binding [2]: binds

B2: HA-tagged 1-200N-Pho (a.a 1-200) (domain or fragment, UniProt Q8ST83 1-200)
chain: MAYERFGIILQSEQYDEDIGNTKVNQKMNEGNHYDLHRKNAFDRIIHSESKKGDNVINYNIHENDKIKAADNIFSSKLKMNPNMSYEMNINCFKNIGYGENQETSKVLTNSLSNNDINTEESGVVDKNSPFLTLGTTILNSNGKSRRWEQKLVHIKTMEGEFSVTMWASGISDDEYSGSDQIVGASDLLKGKEEFGIDGF
- binding [2]: binds

B3: HA-tagged Spt4 (protein, UniProt Q9TVQ5 1-116)
chain: MAFDAIPKDLRGLRACLVCSLVKSFDQFETDGCENCEEFLRMKNNKDNVYDHTSNNFDGIIALTTPTDSWVAKWQRLSRFTRGIYAISVSGTLPQSTLRDMKNRGIVYKSRDRSQR
- binding [2]: binds
